The values below come from article PMC3682188, “Membrane Binding and Self-Association of the Epsin N-Terminal Homology Domain” (Journal of Molecular Biology, 2012).

Sequences of proteins named here, by UniProt entry; tags and fusion partners are left off. A change or cut given only in a name is not applied to a line headed by its entry. A line that says so, or that is headed by a name, gives the form on record, which may keep a tag or linker.
rat epsin 1 ENTH domain (1-164), spin-labeled derivative 6R1 (O88339, form named): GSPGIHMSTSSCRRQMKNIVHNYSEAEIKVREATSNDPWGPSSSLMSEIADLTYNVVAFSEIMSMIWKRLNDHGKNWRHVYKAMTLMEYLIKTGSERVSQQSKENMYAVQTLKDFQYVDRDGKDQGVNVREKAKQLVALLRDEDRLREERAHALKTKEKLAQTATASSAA
rat epsin 1 ENTH domain (1-164), spin-labeled derivative 4R1 (O88339, form named): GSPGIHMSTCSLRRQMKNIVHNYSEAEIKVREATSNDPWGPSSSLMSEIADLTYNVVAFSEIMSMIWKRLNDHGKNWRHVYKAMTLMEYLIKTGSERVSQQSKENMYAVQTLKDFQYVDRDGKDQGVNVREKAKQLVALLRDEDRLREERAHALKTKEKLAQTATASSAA
rat epsin 1 ENTH domain (1-164), spin-labeled derivative 13R1 (O88339, form named): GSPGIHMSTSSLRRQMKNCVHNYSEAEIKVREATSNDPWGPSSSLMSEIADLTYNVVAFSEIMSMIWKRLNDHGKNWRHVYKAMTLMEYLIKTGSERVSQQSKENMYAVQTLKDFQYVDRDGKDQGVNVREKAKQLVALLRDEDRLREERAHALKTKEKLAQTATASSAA
rat epsin 1 ENTH domain (1-164), spin-labeled derivative 5R1 (O88339, form named): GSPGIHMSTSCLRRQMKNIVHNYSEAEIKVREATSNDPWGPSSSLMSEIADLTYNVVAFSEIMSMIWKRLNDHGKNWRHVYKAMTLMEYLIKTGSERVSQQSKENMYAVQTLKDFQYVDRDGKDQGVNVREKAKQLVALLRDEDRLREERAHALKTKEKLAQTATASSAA

No constants are given. Whether binding was seen depends on the method and setting. Some entries that bind do so weakly or less than the wild type.

For test [1], the target named is rat epsin 1 ENTH domain (1-164), spin-labeled derivative 6R1 (rat) (UniProt O88339). The test can be described thus: EPR spectroscopy (spin-spin interaction of singly labeled protein, with spin dilution); bound to preformed lipid tubules (10% cholesterol/40% phosphatidylcholine/40% galactocerebrosides/10% PIP2); 10 uM protein with 60 ug tubes in 100 ul, 10 min at RT, pelleted at 152,800g; 20 mM Hepes pH 7.4, 150 mM NaCl; fully labeled compared with 33% labeled and 67% unlabeled protein; both ….

For test [2] the target is unchanged. The test can be described thus: EPR spectroscopy (spin-spin interaction of singly labeled protein); bound to preformed tubules, frozen state; data not shown; both purified.
Test [3] addresses rat epsin 1 ENTH domain (1-164), spin-labeled derivative 4R1 (rat) (UniProt O88339). The test can be described thus: EPR spectroscopy (spin-spin interaction of singly labeled protein, with spin dilution); bound to preformed lipid tubules (10% cholesterol/40% phosphatidylcholine/40% galactocerebrosides/10% PIP2); 10 uM protein with 60 ug tubes in 100 ul, 10 min at RT, pelleted at 152,800g; 20 mM Hepes pH 7.4, 150 mM NaCl; fully labeled compared with 33% labeled and 67% unlabeled protein; both ….

Test [4] has the same target. The test can be described thus: EPR spectroscopy (spin-spin interaction of singly labeled protein); bound to preformed tubules, frozen state; data not shown; both purified.
The target of test [5] is rat epsin 1 ENTH domain (1-164), spin-labeled derivative 13R1 (rat) (UniProt O88339). Put plainly: EPR spectroscopy (spin-spin interaction of singly labeled protein, with spin dilution); bound to preformed lipid tubules (10% cholesterol/40% phosphatidylcholine/40% galactocerebrosides/10% PIP2); 10 uM protein with 60 ug tubes in 100 ul, 10 min at RT, pelleted at 152,800g; 20 mM Hepes pH 7.4, 150 mM NaCl; fully labeled compared with 33% labeled and 67% unlabeled protein; both ….

Test [6] has the same target. The test can be described thus: EPR spectroscopy (spin-spin interaction of singly labeled protein); bound to preformed tubules, frozen state; data not shown; both purified.
For test [7], the target named is rat epsin 1 ENTH domain (1-164), spin-labeled derivative 5R1 (rat) (UniProt O88339). The test can be described thus: EPR spectroscopy (spin-spin interaction of singly labeled protein, with spin dilution); bound to preformed lipid tubules (10% cholesterol/40% phosphatidylcholine/40% galactocerebrosides/10% PIP2); 10 uM protein with 60 ug tubes in 100 ul, 10 min at RT, pelleted at 152,800g; 20 mM Hepes pH 7.4, 150 mM NaCl; fully labeled compared with 33% labeled and 67% unlabeled protein; both ….

Test [8] has the same target. The test can be described thus: EPR spectroscopy (spin-spin interaction of singly labeled protein); bound to preformed tubules, frozen state; data not shown; both purified.

Turning to “rat epsin 1 ENTH domain (1-164), spin-labeled derivative 6R1 (from UniProt O88339 1-164) (domain or fragment)”, the binding entry in test [1] and in test [2] was “binds” throughout.
For “rat epsin 1 ENTH domain (1-164), spin-labeled derivative 4R1 (from UniProt O88339 1-164) (domain or fragment)”, the binding result in test [3] and in test [4] was “binds” in each case.
Consider “rat epsin 1 ENTH domain (1-164), spin-labeled derivative 13R1 (from UniProt O88339 1-164) (domain or fragment)”, for which the binding entry in test [5] and in test [6] was “binds” throughout.
For “rat epsin 1 ENTH domain (1-164), spin-labeled derivative 5R1 (from UniProt O88339 1-164) (domain or fragment)”, the binding entry in test [7] and in test [8] was “binds” throughout.
